Results taken from paper PMC6052134.
Results are given in words; binding and its absence hold for the method and conditions named. In cells and extracts the contact can be indirect. Here binding means that the protein was enriched with, or labelled near, the bait; the list need not be complete. Sequences can lack the tags named with a protein. Values belong to the molecule of their own block, whether it stands above or below them.

Chains of the proteins cited; added tags and fusions are not shown.
UniProt P29513: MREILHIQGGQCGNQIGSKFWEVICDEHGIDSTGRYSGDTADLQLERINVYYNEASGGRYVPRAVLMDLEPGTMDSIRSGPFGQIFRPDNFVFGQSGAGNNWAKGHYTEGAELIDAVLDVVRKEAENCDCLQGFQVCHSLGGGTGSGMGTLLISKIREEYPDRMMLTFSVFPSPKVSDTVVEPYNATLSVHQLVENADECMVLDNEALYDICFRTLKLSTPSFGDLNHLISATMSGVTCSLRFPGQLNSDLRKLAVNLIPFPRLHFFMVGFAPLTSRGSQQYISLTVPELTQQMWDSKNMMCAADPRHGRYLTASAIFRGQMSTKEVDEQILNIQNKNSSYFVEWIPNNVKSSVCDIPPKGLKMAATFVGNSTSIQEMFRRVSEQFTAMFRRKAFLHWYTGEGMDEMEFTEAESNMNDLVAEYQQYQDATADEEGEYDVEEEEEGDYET
UniProt P31414: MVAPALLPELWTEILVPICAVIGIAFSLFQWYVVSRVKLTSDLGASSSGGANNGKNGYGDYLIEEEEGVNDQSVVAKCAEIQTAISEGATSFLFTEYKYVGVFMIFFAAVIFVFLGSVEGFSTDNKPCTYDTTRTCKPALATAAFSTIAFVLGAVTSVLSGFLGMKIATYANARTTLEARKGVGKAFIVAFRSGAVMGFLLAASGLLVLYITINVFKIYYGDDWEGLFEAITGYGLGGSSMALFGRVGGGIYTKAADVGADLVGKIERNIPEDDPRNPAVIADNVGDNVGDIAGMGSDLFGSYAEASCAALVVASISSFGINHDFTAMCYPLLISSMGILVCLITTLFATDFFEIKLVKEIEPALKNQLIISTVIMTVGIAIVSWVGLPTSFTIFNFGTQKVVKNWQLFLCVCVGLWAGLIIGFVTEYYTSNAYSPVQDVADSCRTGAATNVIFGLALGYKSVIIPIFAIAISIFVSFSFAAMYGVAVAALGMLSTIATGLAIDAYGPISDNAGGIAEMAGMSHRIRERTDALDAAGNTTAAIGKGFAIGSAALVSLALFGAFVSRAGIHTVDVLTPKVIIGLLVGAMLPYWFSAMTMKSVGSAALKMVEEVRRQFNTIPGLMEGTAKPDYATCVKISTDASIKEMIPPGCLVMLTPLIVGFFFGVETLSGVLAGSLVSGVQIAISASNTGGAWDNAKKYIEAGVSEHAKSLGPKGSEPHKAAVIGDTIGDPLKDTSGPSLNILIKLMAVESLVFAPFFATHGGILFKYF

Legend:
[1] = target: T1, Arabidopsis thaliana flotillin 2 fused to GFP (Flot2-GFP) (A. thaliana) (UniProt Q4V3D6); assay: affinity purification with mass spectrometry; anti-GFP immunoprecipitation (mouse monoclonal on Dynabeads Protein A) of the plasma membrane fraction (PEG/dextran two-phase system) isolated from the DSP cross-linked microsomal fraction of AtFlot2-GFP leaves, dissolved with 0.5% sodium deoxycholate; RIPA washes; LC-MS/MS; nine repetitions; WT plants as control
T1 sequence: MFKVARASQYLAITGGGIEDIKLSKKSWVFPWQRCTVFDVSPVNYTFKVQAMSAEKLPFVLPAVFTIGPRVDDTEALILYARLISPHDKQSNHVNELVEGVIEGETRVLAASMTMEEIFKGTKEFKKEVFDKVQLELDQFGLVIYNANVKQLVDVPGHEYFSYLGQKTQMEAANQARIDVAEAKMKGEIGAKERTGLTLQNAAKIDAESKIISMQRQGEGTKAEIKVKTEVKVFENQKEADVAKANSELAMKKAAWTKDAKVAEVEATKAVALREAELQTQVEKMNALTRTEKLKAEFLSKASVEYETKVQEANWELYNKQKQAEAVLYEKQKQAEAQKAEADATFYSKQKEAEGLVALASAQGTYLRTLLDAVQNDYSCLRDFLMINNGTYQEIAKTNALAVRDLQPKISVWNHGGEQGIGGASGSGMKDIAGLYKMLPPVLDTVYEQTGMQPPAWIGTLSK

[2] = target: T1, Arabidopsis thaliana flotillin 2 fused to GFP (Flot2-GFP) (A. thaliana); assay: affinity purification with mass spectrometry; anti-GFP immunoprecipitation (mouse monoclonal on Dynabeads Protein A) of the DSP cross-linked microsomal fraction of AtFlot2-GFP leaves, dissolved with 0.5% sodium deoxycholate; RIPA washes; LC-MS/MS; nine repetitions; WT plants as control

binding [2]: binds
binding [1]: binds
Molecule: Ubiquitin-60S ribosomal protein L40-1 (A. thaliana (endogenous in leaves))

binding [1]: binds
B1: Syntaxin-71 (protein, UniProt Q9SF29 1-266)
chain: MTVIDILTRVDSICKKYDKYDVDKQREANISGDDAFARLYGAFETQIETALEKAELVTKEKNRAAAVAMNAEIRRTKARLSEEVPKLQRLAVKRVKGLTTEELAARNDLVLALPARIEAIPDGTAGGPKSTSAWTPSSTTSRPDIKFDSDGRFDDDYFQESNESSQFRQEYEMRKIKQEQGLDMISEGLDALKNMASDMNEELDRQVPLMDEIDTKVDRATSDLKNTNVRLKDTVNQLRSSRNFCIDIVLLCIVLGIAAYLYNVLK

binding [2]: binds
B5: Glyceraldehyde-3-phosphate dehydrogenase (protein, UniProt P25856 61-396)
chain: KLKVAINGFGRIGRNFLRCWHGRKDSPLDIIAINDTGGVKQASHLLKYDSTLGIFDADVKPSGETAISVDGKIIQVVSNRNPSLLPWKELGIDIVIEGTGVFVDREGAGKHIEAGAKKVIITAPGKGDIPTYVVGVNADAYSHDEPIISNASCTTNCLAPFVKVLDQKFGIIKGTMTTTHSYTGDQRLLDASHRDLRRARAAALNIVPTSTGAAKAVALVLPNLKGKLNGIALRVPTPNVSVVDLVVQVSKKTFAEEVNAAFRDSAEKELKGILDVCDEPLVSVDFRCSDFSTTIDSSLTMVMGDDMVKVIAWYDNEWGYSQRVVDLADIVANNWK

binding [1]: binds
B6: Photosystem I reaction center subunit II-2, chloroplastic (protein, UniProt Q9SA56 45-204)
chain: EKTESSSAAPAVKEAPVGFTPPQLDPNTPSPIFAGSTGGLLRKAQVEEFYVITWNSPKEQIFEMPTGGAAIMREGPNLLKLARKEQCLALGTRLRSKYKITYQFYRVFPNGEVQYLHPKDGVYPEKANPGREGVGLNMRSIGKNVSPIEVKFTGKQSYDL

binding [1]: binds
B9: Hypersensitive-induced response protein 2 (protein, UniProt Q9SRH6 1-285)
chain: MGNLFCCVLVKQSDVAVKERFGKFQKVLNPGLQFVPWVIGDYVAGTLTLRLQQLDVQCETKTKDNVFVTVVASIQYRVLADKASDAFYRLSNPTTQIKAYVFDVIRACVPKLNLDDVFEQKNEIAKSVEEELDKAMTAYGYEILQTLIIDIEPDQQVKRAMNEINAAARMRVAASEKAEAEKIIQIKRAEGEAESKYLSGLGIARQRQAIVDGLRDSVLGFAGNVPGTSAKDVLDMVMMTQYFDTMRDIGATSKSSAVFIPHGPGAVSDVAAQIRNGLLQANNAS

Continued, molecule first:

Molecule: Tubulin beta-5 chain (from UniProt P29513 1-449)
binding [1]: binds

Molecule: Pyrophosphate-energized vacuolar membrane proton pump 1 (from UniProt P31414 1-770)
binding [1]: binds

B2: Harpin-induced protein-like (protein, UniProt Q9FNH6 1-231)
chain: MADLNGAYYGPSIPPPKKVSHSHGRRGGGCGCLGDCLGCCGCCILSVIFNILITIAVLLGIAALIIWLIFRPNAIKFHVTDAKLTEFTLDPTNNLRYNLDLNFTIRNPNRRIGVYYDEIEVRGYYGDQRFGMSNNISKFYQGHKNTTVVGTKLVGQQLVLLDGGERKDLNEDVNSQIYRIDAKLRLKIRFKFGLIKSWRFKPKIKCDLKVPLTSNSTSGFVFQPTKCDVDF
binding [1]: binds

B3: 5-methyltetrahydropteroyltri-glutamate-homocysteine methyltransferase 1 (protein, UniProt O50008 1-765)
chain: MASHIVGYPRMGPKRELKFALESFWDGKSTAEDLQKVSADLRSSIWKQMSAAGTKFIPSNTFAHYDQVLDTTAMLGAVPPRYGYTGGEIGLDVYFSMARGNASVPAMEMTKWFDTNYHYIVPELGPEVNFSYASHKAVNEYKEAKALGVDTVPVLVGPVSYLLLSKAAKGVDKSFELLSLLPKILPIYKEVITELKAAGATWIQLDEPVLVMDLEGQKLQAFTGAYAELESTLSGLNVLVETYFADIPAEAYKTLTSLKGVTAFGFDLVRGTKTLDLVKAGFPEGKYLFAGVVDGRNIWANDFAASLSTLQALEGIVGKDKLVVSTSCSLLHTAVDLINETKLDDEIKSWLAFAAQKVVEVNALAKALAGQKDEALFSANAAALASRRSSPRVTNEGVQKAAAALKGSDHRRATNVSARLDAQQKKLNLPILPTTTIGSFPQTVELRRVRREYKAKKVSEEDYVKAIKEEIKKVVDLQEELDIDVLVHGEPERNDMVEYFGEQLSGFAFTANGWVQSYGSRCVKPPVIYGDVSRPKAMTVFWSAMAQSMTSRPMKGMLTGPVTILNWSFVRNDQPRHETCYQIALAIKDEVEDLEKGGIGVIQIDEAALREGLPLRKSEHAFYLDWAVHSFRITNCGVQDSTQIHTHMCYSHFNDIIHSIIDMDADVITIENSRSDEKLLSVFREGVKYGAGIGPGVYDIHSPRIPSSEEIADRVNKMLAVLEQNILWVNPDCGLKTRKYTEVKPALKNMVDAAKLIRSQLASAK
binding [1]: binds

B4: Aquaporin PIP1-2 (protein, UniProt Q06611 1-286)
chain: MEGKEEDVRVGANKFPERQPIGTSAQSDKDYKEPPPAPLFEPGELASWSFWRAGIAEFIATFLFLYITVLTVMGVKRSPNMCASVGIQGIAWAFGGMIFALVYCTAGISGGHINPAVTFGLFLARKLSLTRAVYYIVMQCLGAICGAGVVKGFQPKQYQALGGGANTIAHGYTKGSGLGAEIIGTFVLVYTVFSATDAKRNARDSHVPILAPLPIGFAVFLVHLATIPITGTGINPARSLGAAIIFNKDNAWDDHWVFWVGPFIGAALAALYHVIVIRAIPFKSRS
binding [1]: binds

B7: Early-responsive to dehydration stress protein (protein, UniProt Q9C8G5 1-724)
chain: MEFGSFLVSLGTSFVIFVILMLLFTWLSRKSGNAPIYYPNRILKGLEPWEGTSLTRNPFAWMREALTSSEQDVVNLSGVDTAVHFVFLSTVLGIFACSSLLLLPTLLPLAATDNNIKNTKNATDTTSKGTFSQLDNLSMANITKKSSRLWAFLGAVYWISLVTYFFLWKAYKHVSSLRAQALMSADVKPEQFAILVRDMPAPPDGQTQKEFIDSYFREIYPETFYRSLVATENSKVNKIWEKLEGYKKKLARAEAILAATNNRPTNKTGFCGLVGKQVDSIEYYTELINESVAKLETEQKAVLAEKQQTAAVVFFTTRVAAASAAQSLHCQMVDKWTVTEAPEPRQLLWQNLNIKLFSRIIRQYFIYFFVAVTILFYMIPIAFVSAITTLKNLQRIIPFIKPVVEITAIRTVLESFLPQIALIVFLAMLPKLLLFLSKAEGIPSQSHAIRAASGKYFYFSVFNVFIGVTLAGTLFNTVKDIAKNPKLDMIINLLATSLPKSATFFLTYVALKFFIGYGLELSRIIPLIIFHLKKKYLCKTEAEVKEAWYPGDLSYATRVPGDMLILTITFCYSVIAPLILIFGITYFGLGWLVLRNQALKVYVPSYESYGRMWPHIHQRILAALFLFQVVMFGYLGAKTFFYTALVIPLIITSLIFGYVCRQKFYGGFEHTALEVACRELKQSPDLEEIFRAYIPHSLSSHKPEEHEFKGAMSRYQDFNAIAGV
binding [1]: binds

B8: Carbonic anhydrase 2, chloroplastic (protein, UniProt P42737 72-331)
chain: RMGNESYEDAIEALKKLLIEKDDLKDVAAAKVKKITAELQAASSSDSKSFDPVERIKEGFVTFKKEKYETNPALYGELAKGQSPKYMVFACSDSRVCPSHVLDFHPGDAFVVRNIANMVPPFDKVKYAGVGAAIEYAVLHLKVENIVVIGHSACGGIKGLMSFPLDGNNSTDFIEDWVKICLPAKSKVLAESESSAFEDQCGRCEREAVNVSLANLLTYPFVREGVVKGTLALKGGYYDFVNGSFELWELQFGISPVHSI
binding [1]: binds
